Experimental data as given in PubChem BioAssay AID1487 (National Center for Advancing Translational Sciences (NCATS), 2009).
The list shows a part of the results. These are further read-outs of the screen, such as a control signal, another cell line or another target. No call is given for them. Compounds called inactive in the main read-out are mostly missing here. Potencies come from curve fits of mixed quality, noted in brackets.

Test: qHTS Assay for Modulators of Lamin A Splicing
Conditions: HeLa LMNA splicing GFP/RFP minigene ratio, 48 h
Procedure, shortened: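 Read-out is the ratio of GFP to DsRed2 object intensity, acquired by 488 nm laser-scanning cytometry on HeLa lamin A-EGFP minigene reporter cells. Compound incubation 48 hrs at 37 °C in Opti-MEM with 2% FBS; DMSO 0.5% final.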

[1] = measured here: RFP viability control channel
[2] = measured here: GFP splicing reporter channel

Compound	AC50 [1]	AC50 [2]
COc1ccc(-n2[nH]c(C)cc2=O)cc1	35.5 µM [rising, single point]	
Cc1ccccc1OCCCCn1cnc2ccccc21	3.55 µM [rising, partial curve]	2.24 µM [rising, full curve]
CCOc1ccccc1C(=O)NCc1ccc2c(c1)CCN2C(C)=O	1.58 µM [rising, partial curve]	
Nc1ccccc1Nc1cc(-c2ccccc2)nn1-c1ccccc1	6.31 µM [rising, partial curve]	
Cc1[nH][nH]c(=O)c1C=NCc1cccc(C(F)(F)F)c1		0.0126 µM [rising, partial curve, poor fit]
CN(C1=C(N2CCCCC2)C(=O)c2ccccc2C1=O)c1ccccc1	35.5 µM [rising, single point]	
COc1ccc2c(c1)CCc1c(C(=O)NC3CCCCC3)noc1-2	20 µM [rising, single point]	
Cc1ccc(S(=O)(=O)NCCCC(=O)O)cc1		0.00447 µM [rising, full curve, poor fit]
Cc1ccc(/C=N/Nc2cccc3cccnc23)c(O)c1	12.6 µM [rising, single point]	
O=C(NCCc1ccc(Cl)cc1)c1ccc(CSCc2ccccc2Cl)o1	11.2 µM [rising, partial curve]	
CC(C)CC(C(=O)Nc1ccccc1)N1C(=O)C2C3C=CC(C3)C2C1=O (stereo not drawn)	3.55 µM [falling, partial curve]	1.12 µM [falling, partial curve, poor fit]
CN=C1SC(CC(=O)Nc2sc3c(c2C#N)CCCC3)C(=O)N1C (stereo not drawn)	0.0891 µM [rising, full curve, poor fit]	
Cc1cc(CNC(=O)CCc2nnc(CCCCc3ccccc3)o2)nn1C		0.0224 µM [rising, full curve, poor fit]
Cc1ccc(Nc2nnc(SC(C)C(=O)Nc3c(C)n(C)n(-c4ccccc4)c3=O)s2)cc1 (stereo not drawn)	12.6 µM [rising, partial curve]	
CCN=C1S/C(=C\c2cn(CC)c3ccccc23)C(=O)N1CC	12.6 µM [rising, partial curve]	14.1 µM [rising, single point]
CCOC(=O)c1cnc(SC2CC(=O)N(c3ccccc3)C2=O)nc1N (stereo not drawn)	1.12 µM [falling, full curve, poor fit]	
CCCCNS(=O)(=O)c1ccc2nc(SCC(=O)Nc3sccc3C#N)[nH]c2c1	15.8 µM [rising, partial curve, poor fit]	
CCOC(=O)Cc1csc(NC(=O)c2ccc(Br)s2)n1	0.00355 µM [rising, full curve, poor fit]	
CSc1cccc(N2C(=O)N(CC(=O)NCc3ccccc3Cl)c3ccccc3S2(=O)=O)c1	6.31 µM [rising, partial curve, poor fit]	0.282 µM [rising, partial curve]

Compound	AC50 [1]	AC50 [2]
Cc1ccc(N=C(NO)c2nonc2N)c(C)c1	14.1 µM [rising, partial curve]	5.01 µM [rising, partial curve, poor fit]
CCOc1ccc(C(=O)c2oc3ccccc3c2NC(=O)c2cc(-c3ccccc3)on2)cc1		12.6 µM [rising, partial curve, poor fit]
Cc1cccc2sc(N(Cc3cccnc3)C(=O)Cc3ccccc3)nc12	8.91 µM [rising, partial curve]	
Cc1cc(Nc2ccc(C(C)C)cc2)nc(-n2nc(C)cc2C)n1	7.08 µM [rising, full curve, poor fit]	2.51 µM [rising, partial curve, poor fit]
C=CCN(c1ccc(C(=O)Nc2cc(C)cc(C)c2)cc1)S(C)(=O)=O	35.5 µM [rising, single point]	14.1 µM [rising, single point]
CCN(CC)c1ccc(/C=N/NC(=O)Cc2cccs2)c(O)c1	35.5 µM [rising, single point]	31.6 µM [rising, single point]
COc1ccc(Cl)cc1Nc1nc(-c2sc(NC(=O)C(C)(C)C)nc2C)cs1	3.55 µM [rising, full curve]	4.47 µM [rising, partial curve, poor fit]
OC[C@H]1O[C@@H](n2cnc3c(N[C@H]4CC5CCC4C5)ncnc32)[C@H](O)[C@@H]1O (stereo partly drawn)	6.31 µM [falling, single point]	
CN1CCN(c2cnn(-c3ccccc3)c(=O)c2Br)CC1	0.0178 µM [falling, full curve, poor fit]	
COc1ccc(S(=O)(=O)N2CCN(C(=O)COc3ccc4c(C)cc(=O)oc4c3)CC2)cc1	3.55 µM [rising, full curve, poor fit]	
CC(C)(C)c1ccc(S(=O)(=O)N2CCCCC2)cc1	12.6 µM [rising, partial curve]	14.1 µM [rising, single point]
CCOc1ccc(S(=O)(=O)n2cnc3cc(C)c(C)cc32)cc1	8.91 µM [rising, partial curve]	
O=C(Nn1cc(C(=O)Nc2ccccc2F)c2ccccc2c1=O)c1cnccn1	8.91 µM [rising, partial curve, poor fit]	
Cc1cccc(Cn2c(SCc3ccc(C(=O)NCCc4ccccc4)cc3)nc3cccnc32)c1		10 µM [falling, partial curve]
CCCn1c(NC(=O)c2ccc(Cl)c(S(=O)(=O)N3CCCC3)c2)nc2ccccc21	11.2 µM [rising, partial curve]	14.1 µM [rising, partial curve]
CC(C)(CNC(=O)c1sc2cc(F)ccc2c1Cl)N1CCOCC1	35.5 µM [rising, single point]	35.5 µM [rising, single point]
CC(=O)Nc1cccc(NC(=O)C2(c3cccs3)CCOCC2)c1	0.0141 µM [falling, full curve, poor fit]	0.02 µM [falling, full curve, poor fit]
CC(C)Cc1ccc(C(C)C(=O)Nc2nccs2)cc1 (stereo not drawn)	25.1 µM [rising, single point]	17.8 µM [rising, single point]
O=C(CC1CCCCC1)NCCOc1ccccc1		10 µM [rising, partial curve]

Compound	AC50 [1]	AC50 [2]
Cc1ccc(OCc2nnc(SCc3ccc(C#N)cc3)n2-c2ccc(C)cc2)cc1	5.01 µM [rising, partial curve, poor fit]	
CCOC(=O)CC(=O)CSc1nc2ccccc2c(=O)n1CCc1ccccc1	25.1 µM [rising, partial curve]	35.5 µM [rising, partial curve, poor fit]
O=C(Nc1ccccc1)Nc1c(F)cccc1F		0.251 µM [falling, full curve, poor fit]
CCOC(=O)C1=C(C)NC(=S)NC1/C=C/c1ccccc1 (stereo not drawn)	14.1 µM [rising, single point]	
CCCc1ccc(OCc2ccc(C(=O)N3CCN(c4ccccn4)CC3)o2)c(OC)c1	15.8 µM [rising, single point]	22.4 µM [rising, single point]
Cc1ccsc1/C=N/N1CCN(c2ccccc2)CC1	10 µM [rising, single point]	
O=C(c1cc(Cl)cc(Cl)c1)N1CCC(=O)N(C(COCc2ccccc2)Cc2ccccc2)CC1 (stereo not drawn)	35.5 µM [rising, single point]	
Cc1ccc(Cn2cnc3ccccc32)cc1	15.8 µM [rising, single point]	
Cn1cc(S(=O)(=O)N2CCCC2)cc1C(=O)Nc1ccc(C(F)(F)F)cc1	0.00794 µM [falling, full curve, poor fit]	
CC(=O)Nc1cccc(C(=O)OCC(=O)NC(C)c2ccc(F)cc2)c1 (stereo not drawn)	0.0447 µM [falling, full curve, poor fit]	
N#Cc1ccccc1/C=N/Nc1nc(-c2ccccc2)c2cc(Cl)ccc2n1	20 µM [falling, single point]	20 µM [falling, single point]
CCCN(CCC)C(C(=O)Nc1cccc(OC)c1)c1ccccc1 (stereo not drawn)	20 µM [rising, single point]	35.5 µM [rising, single point]
Nc1nc(Cl)cc(N2CCC(c3cc(-c4ccc(Cl)cc4Cl)n[nH]3)CC2)n1	17.8 µM [falling, single point]	22.4 µM [falling, single point]
CCN(CC)S(=O)(=O)c1cccc(C(=O)Nc2ccc(Cl)cn2)c1	15.8 µM [rising, single point]	
O=C(COc1ccccc1)NNc1c2ccccc2nc2ccccc12	5.01 µM [falling, single point]	17.8 µM [falling, single point]
O=C(Cn1ncc(Cl)c(Cl)c1=O)NCC1CCCCC1	14.1 µM [falling, partial curve]	
COc1ccc(N=Nc2nc3cc(Br)c(Br)cc3n2C)c(OC)c1	12.6 µM [falling, partial curve]	12.6 µM [falling, partial curve]
NC1=NC(=Nc2ccc(Br)cc2)c2ccccc21	31.6 µM [rising, single point]	8.91 µM [rising, partial curve, poor fit]

At a glance, 11 of the compounds above.
Compound	AC50 [1]	AC50 [2]
CN(C1=C(N2CCCCC2)C(=O)c2ccccc2C1=O)c1ccccc1	35.5 µM [rising, single point]	
COc1ccc2c(c1)CCc1c(C(=O)NC3CCCCC3)noc1-2	20 µM [rising, single point]	
Cc1ccc(S(=O)(=O)NCCCC(=O)O)cc1		0.00447 µM [rising, full curve, poor fit]
Cc1ccc(/C=N/Nc2cccc3cccnc23)c(O)c1	12.6 µM [rising, single point]	
O=C(NCCc1ccc(Cl)cc1)c1ccc(CSCc2ccccc2Cl)o1	11.2 µM [rising, partial curve]	
CC(C)CC(C(=O)Nc1ccccc1)N1C(=O)C2C3C=CC(C3)C2C1=O (stereo not drawn)	3.55 µM [falling, partial curve]	1.12 µM [falling, partial curve, poor fit]
CN=C1SC(CC(=O)Nc2sc3c(c2C#N)CCCC3)C(=O)N1C (stereo not drawn)	0.0891 µM [rising, full curve, poor fit]	
Cc1cc(CNC(=O)CCc2nnc(CCCCc3ccccc3)o2)nn1C		0.0224 µM [rising, full curve, poor fit]
Cc1ccc(Nc2nnc(SC(C)C(=O)Nc3c(C)n(C)n(-c4ccccc4)c3=O)s2)cc1 (stereo not drawn)	12.6 µM [rising, partial curve]	
CCN=C1S/C(=C\c2cn(CC)c3ccccc23)C(=O)N1CC	12.6 µM [rising, partial curve]	14.1 µM [rising, single point]
CCOC(=O)c1cnc(SC2CC(=O)N(c3ccccc3)C2=O)nc1N (stereo not drawn)	1.12 µM [falling, full curve, poor fit]	
